Assay results taken from the supplement of paper PMC11150407.
Where a name gives a salt, the structure may show the parent alone. Among all 2,100 compounds or so, about 180 (8.6%) showed an effect of 50% or more. Some of the results follow.

System: MOLM1 and UCSD/AML1 (averaged)
Experiment: cell viability relative to DMSO control (POC); higher = less growth inhibition
Settings: 1 µM; 72 h
Experimental: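 Primary viability screen in the 3q26 EVI1-high AML cell lines MOLM1 and UCSD/AML1 (1.5e3 cells/well, 384-well), compounds at 1 uM for 72 h. ATP CellTiter-Glo read-out given as percent of viable cells over DMSO control (POC), averaged over duplicates. DMSO was the negative control and 5 uM etoposide the positive control. This mapping covers the MicroSource Spectrum and Selleck anticancer libraries (drug names).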

SMILES | cell viability [%]
Cc1cc(C2CCCCC2)n(O)c(=O)c1 | 80.1
O=C(O)c1cc2cc(Cl)ccc2[nH]1 | 98.1
O=C(O)C(=O)O.[NH-]C1CCCCC1[NH-].[Pt+2] (stereo unspecified) [Oxaliplatin (Eloxatin)] | 41.3
COc1ccc(C2C(=O)c3ccccc3C2=O)cc1 | 99
Cc1cccc(C)c1NC(=O)C1CCCCN1C (stereo unspecified) | 89.4
COc1cc(/C=C/C(=O)N2CCC=CC2=O)cc(OC)c1OC | 50.7
CN(C)c1ccc2nc3ccc(=[N+](C)C)cc-3sc2c1 | 103
CC(=O)Oc1ccc2c(c1)CC[C@@H]1[C@@H]2CC[C@]2(C)[C@@H](OC(C)=O)CC[C@@H]12 | 87.5
Cc1ncc([N+](=O)[O-])n1CC(O)CCl (stereo unspecified) | 96
COc1cc(OC)c2c(OC)c(-c3ccc4c(c3)OCO4)c(=O)oc2c1 | 101
CN1C(C(=O)Nc2ccccn2)=C(O)c2sccc2S1(=O)=O | 96.9
N=C(N)N | 96.3
C[C@]12CC[C@H]3C(=CCc4cc(O)ccc43)[C@@H]1CCC2=O | 93.4
C[C@]12C=CC(=O)C=C1CC[C@@H]1[C@@H]2[C@@H](O)C[C@@]2(C)[C@H]1CC[C@]2(O)C(=O)COP(=O)(O)O | 84.2
CCCCCC/C=C\CCCCCCCc1cccc(O)c1C(=O)O | 81.2
Cc1c(C(N)=O)cc([N+](=O)[O-])cc1[N+](=O)[O-] | 87.7
C=C[C@H]1CN2CC[C@H]1C[C@@H]2[C@@H](O)c1ccnc2ccc(OC)cc12 | 109
COc1ccc2c(c1OC)OC[C@@H](c1ccc(OC)c(OC)c1OC)C2 | 113
CS(=O)(=O)c1ccc(C2=C(c3ccccc3)C(=O)OC2)cc1 | 95.1
CN(C)CCC=C1c2ccccc2CCc2ccccc21 | 99.3
O=C(Nc1ccccc1)c1ccccc1O | 97.1
C=C1C(=O)[C@]23[C@H](CC[C@@H]1[C@@H]2O)[C@]12CO[C@@]3(O)[C@H](O)[C@H]1C(C)(C)CC[C@@H]2O | 94.3

A run of entries from the list above, as a working copy:
SMILES | cell viability [%]
C[C@]12CC[C@H]3C(=CCc4cc(O)ccc43)[C@@H]1CCC2=O | 93.4
C[C@]12C=CC(=O)C=C1CC[C@@H]1[C@@H]2[C@@H](O)C[C@@]2(C)[C@H]1CC[C@]2(O)C(=O)COP(=O)(O)O | 84.2

Later entries.

SMILES | cell viability [%]
COC(=O)C[C@H]1C(C)(C)C(=O)[C@@H]2CC3=C(CC[C@]4(C)C3=CC(=O)O[C@H]4c3ccoc3)[C@@]1(C)C2=O | 93.4
CCN(CC)CCOC(=O)C(c1ccccc1)C1CCCCC1 (stereo unspecified) | 103
COCC1=C(C(=O)OC(C)OC(=O)OC(C)C)N2C(=O)[C@@H](NC(=O)/C(=N\OC)c3csc(N)n3)[C@H]2SC1 (stereo partly specified) | 88.2
CN1CCC(c2c(O)cc(O)c3c(=O)cc(-c4ccccc4Cl)oc23)C(O)C1 (stereo unspecified) [Flavopiridol (Alvocidib) HCl] | 1.36
COc1cc(Cc2cnc(N)nc2N)cc(OC)c1OC | 92
CC1CCC(C(C)C)C(O)C1 (stereo unspecified) | 99.3
C[C@@H](Oc1cc(-n2cnc3ccc(CN4CCN(C)CC4)cc32)sc1C(N)=O)c1ccccc1C(F)(F)F | 19.5
O=C(CCCN1CCC(O)(c2ccc(Br)cc2)CC1)c1ccc(F)cc1 | 78.4
CNCC[C@H](Oc1cccc2ccccc12)c1cccs1 | 103
CC1(COc2ccc3c(c2)ncn3-c2ccc3cccc(N4CCC(N)CC4)c3n2)COC1 | 29.2
CO[C@@]1(NC(=O)Cc2cccs2)C(=O)N2C(C(=O)O)=C(COC(N)=O)CS[C@@H]21 | 111
COc1cc2c(cc1OC)C(=O)C(CC1CCN(Cc3ccccc3)CC1)C2 (stereo unspecified) | 85.7
CC(=O)OCC(=O)[C@H]1CC[C@H]2[C@@H]3CCC4=CC(=O)CC[C@]4(C)[C@H]3CC[C@]12C | 99.5
Oc1cccc(-c2nc(N3CCOCC3)c3oc4ncccc4c3n2)c1 | 25.7
CC(CN(C)C)CN1c2ccccc2Sc2ccccc21 (stereo unspecified) | 89.5
CC1(C)[C@@H](OC(=O)CCC(=O)O)CC[C@]2(C)[C@H]3C(=O)C=C4[C@@H]5C[C@@](C)(C(=O)O)CC[C@]5(C)CC[C@@]4(C)[C@]3(C)CC[C@@H]12 | 94.5
N=C(N)NCCN1CCCCCCC1 | 103
C=CCOC(Cn1ccnc1)c1ccc(Cl)cc1Cl (stereo unspecified) | 94
O=C(/C=C/c1ccc(O)c(O)c1)O[C@@H]1C[C@](O)(C(=O)O)C[C@@H](O)[C@H]1O | 98.2
CC(C)C[C@H](NC(=O)CNC(=O)c1cc(Cl)ccc1Cl)B1OC(=O)C(CC(=O)O)(CC(=O)O)O1 | 1.16
CC[C@@H](CO)NCCN[C@@H](CC)CO | 105
CCN(CC)CCCCNc1ncc2cc(-c3cc(OC)cc(OC)c3)c(NC(=O)NC(C)(C)C)nc2n1 | 36.8

SMILES | cell viability [%]
Nc1ccccc1C(=O)CC(N)C(=O)O (stereo unspecified) | 98.1
CCCOc1ccc(C(=O)OCCN(CC)CC)cc1N | 89.5
Cc1cc(O)c2c(O)c3c(O)cccc3cc2c1 | 122
C=CCSCC1Nc2cc(Cl)c(S(N)(=O)=O)cc2S(=O)(=O)N1 (stereo unspecified) | 91.6
c1ccc(CN(CC2=NCCN2)c2ccccc2)cc1 | 94.8
CC1(C)CC2C1CCC1(C)OC2(C)CCC1O (stereo unspecified) | 91.4
OCc1ccccc1O | 98.8
COc1c(N2CCNC(C)C2)c(F)cc2c(=O)c(C(=O)O)cn(C3CC3)c12 (stereo unspecified) | 92.6
O=C(c1ccccc1)c1ccc2n1CCC2C(=O)O (stereo unspecified) | 96.7
CCOC(=O)[C@@](C)(N)Cc1ccc(O)c(O)c1 | 103
FC(F)(F)COCC(F)(F)F | 88.8
CCN[C@@H]1C[C@H](N)[C@@H](O[C@H]2OC(CN)=CC[C@H]2N)[C@H](O)[C@H]1O[C@H]1OC[C@](C)(O)[C@H](NC)[C@H]1O | 99.5
C=CCCCCCCCCC(=O)[O-].C=CCCCCCCCCC(=O)[O-].[Zn+2] | 101
COC(=O)Nc1nc2cc([S+]([O-])c3ccccc3)ccc2[nH]1 (stereo unspecified) | 50.5
O=c1cc(-c2ccccc2)oc2cccc(O)c12 | 119
CNc1ccccc1C(=O)N1CCc2c([nH]c3ccccc23)C1=O | 88.5
COc1ccc2c(=O)c(CC(=O)O)coc2c1 | 98.6
Nc1c2c(nc3ccccc13)CCCC2O (stereo unspecified) | 99.7
COc1ccccc1OCC(O)COC(N)=O (stereo unspecified) | 100
CO/N=C(\C(=O)N[C@@H]1C(=O)N2C(C(=O)OC(C)OC(C)=O)=C(COC(N)=O)CS[C@H]12)c1ccco1 (stereo partly specified) | 116
O=c1ccn([C@@H]2O[C@H](COP(=O)(O)OP(=O)(O)OP(=O)(O)O)[C@@H](O)[C@H]2O)c(=O)[nH]1 | 107
Cc1nc(-c2ccc(OCC(C)C)c(C#N)c2)sc1C(=O)O [Febuxostat (Uloric)] | 99.3

Fetched one by one from the entries so far (2):
SMILES | cell viability [%]
CC1(C)[C@@H](OC(=O)CCC(=O)O)CC[C@]2(C)[C@H]3C(=O)C=C4[C@@H]5C[C@@](C)(C(=O)O)CC[C@]5(C)CC[C@@]4(C)[C@]3(C)CC[C@@H]12 | 94.5
COCC1=C(C(=O)OC(C)OC(=O)OC(C)C)N2C(=O)[C@@H](NC(=O)/C(=N\OC)c3csc(N)n3)[C@H]2SC1 (stereo partly specified) | 88.2
